Reference: the supplement of paper PMC10849652
This is one part of the list.

The chains behind the UniProt entries cited, without tags or fusion partners. Where a name states a change or a piece, a line headed by the entry shows the natural chain unless it says otherwise.
UniProt O14841: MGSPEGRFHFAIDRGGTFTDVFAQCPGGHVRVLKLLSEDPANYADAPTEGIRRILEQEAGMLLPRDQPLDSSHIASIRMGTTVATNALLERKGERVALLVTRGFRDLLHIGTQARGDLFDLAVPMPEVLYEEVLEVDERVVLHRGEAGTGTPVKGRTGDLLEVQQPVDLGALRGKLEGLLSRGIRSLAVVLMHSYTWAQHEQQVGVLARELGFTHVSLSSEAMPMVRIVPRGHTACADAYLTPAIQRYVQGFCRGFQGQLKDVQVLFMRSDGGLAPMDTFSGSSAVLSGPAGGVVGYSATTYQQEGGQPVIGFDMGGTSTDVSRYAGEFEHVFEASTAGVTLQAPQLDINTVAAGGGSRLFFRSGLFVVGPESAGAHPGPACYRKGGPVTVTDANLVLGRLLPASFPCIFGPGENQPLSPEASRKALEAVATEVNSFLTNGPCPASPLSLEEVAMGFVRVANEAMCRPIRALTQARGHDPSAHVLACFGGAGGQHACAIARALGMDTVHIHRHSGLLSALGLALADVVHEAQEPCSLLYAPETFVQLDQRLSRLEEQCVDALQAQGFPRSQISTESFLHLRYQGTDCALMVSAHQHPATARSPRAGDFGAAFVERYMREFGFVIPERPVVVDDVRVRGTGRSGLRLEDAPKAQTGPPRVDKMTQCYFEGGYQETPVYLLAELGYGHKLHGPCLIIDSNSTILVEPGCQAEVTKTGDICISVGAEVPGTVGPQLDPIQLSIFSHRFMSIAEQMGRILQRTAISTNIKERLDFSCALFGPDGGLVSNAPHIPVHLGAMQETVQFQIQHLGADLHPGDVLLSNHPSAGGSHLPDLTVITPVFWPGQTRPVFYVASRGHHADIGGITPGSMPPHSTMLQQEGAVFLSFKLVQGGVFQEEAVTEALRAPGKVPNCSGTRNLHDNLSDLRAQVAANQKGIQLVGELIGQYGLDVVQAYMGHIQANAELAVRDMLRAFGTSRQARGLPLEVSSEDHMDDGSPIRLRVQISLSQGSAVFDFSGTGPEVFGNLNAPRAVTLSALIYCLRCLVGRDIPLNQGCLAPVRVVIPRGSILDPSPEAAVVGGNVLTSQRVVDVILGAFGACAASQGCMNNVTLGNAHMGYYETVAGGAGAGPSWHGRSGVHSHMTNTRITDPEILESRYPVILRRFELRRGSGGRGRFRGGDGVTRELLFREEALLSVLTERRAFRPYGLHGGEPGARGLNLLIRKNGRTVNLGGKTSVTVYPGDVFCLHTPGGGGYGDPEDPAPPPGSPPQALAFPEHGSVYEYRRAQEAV
UniProt P13674: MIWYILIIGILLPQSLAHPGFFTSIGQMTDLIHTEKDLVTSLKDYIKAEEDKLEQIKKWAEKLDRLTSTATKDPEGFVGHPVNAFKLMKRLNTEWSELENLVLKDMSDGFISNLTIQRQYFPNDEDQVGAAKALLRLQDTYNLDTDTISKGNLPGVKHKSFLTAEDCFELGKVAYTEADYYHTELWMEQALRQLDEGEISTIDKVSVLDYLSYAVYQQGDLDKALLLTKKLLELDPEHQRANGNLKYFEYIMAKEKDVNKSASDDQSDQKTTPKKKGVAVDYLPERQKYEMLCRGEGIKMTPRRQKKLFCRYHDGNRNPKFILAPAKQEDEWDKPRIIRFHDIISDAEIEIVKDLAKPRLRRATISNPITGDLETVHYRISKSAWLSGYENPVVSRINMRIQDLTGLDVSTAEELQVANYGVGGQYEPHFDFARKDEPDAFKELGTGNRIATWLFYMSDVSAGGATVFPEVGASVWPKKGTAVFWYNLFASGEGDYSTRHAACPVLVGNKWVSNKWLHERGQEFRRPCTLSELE
UniProt Q9NX40: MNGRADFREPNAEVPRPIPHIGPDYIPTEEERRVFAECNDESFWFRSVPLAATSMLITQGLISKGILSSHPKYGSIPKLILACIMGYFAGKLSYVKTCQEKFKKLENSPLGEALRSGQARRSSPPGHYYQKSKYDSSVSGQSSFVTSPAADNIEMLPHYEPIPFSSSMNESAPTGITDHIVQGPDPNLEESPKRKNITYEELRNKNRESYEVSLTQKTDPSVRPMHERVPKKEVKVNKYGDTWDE
UniProt Q9BRQ3: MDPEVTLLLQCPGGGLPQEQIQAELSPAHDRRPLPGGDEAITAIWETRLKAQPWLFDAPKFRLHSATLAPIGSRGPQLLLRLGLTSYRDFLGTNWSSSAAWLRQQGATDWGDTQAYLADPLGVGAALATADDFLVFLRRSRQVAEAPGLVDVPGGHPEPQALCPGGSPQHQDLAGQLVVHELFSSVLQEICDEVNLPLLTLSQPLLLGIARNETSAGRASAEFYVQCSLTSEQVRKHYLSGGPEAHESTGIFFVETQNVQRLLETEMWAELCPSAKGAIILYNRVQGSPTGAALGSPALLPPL
UniProt Q9H1P3, whole entry, looked up: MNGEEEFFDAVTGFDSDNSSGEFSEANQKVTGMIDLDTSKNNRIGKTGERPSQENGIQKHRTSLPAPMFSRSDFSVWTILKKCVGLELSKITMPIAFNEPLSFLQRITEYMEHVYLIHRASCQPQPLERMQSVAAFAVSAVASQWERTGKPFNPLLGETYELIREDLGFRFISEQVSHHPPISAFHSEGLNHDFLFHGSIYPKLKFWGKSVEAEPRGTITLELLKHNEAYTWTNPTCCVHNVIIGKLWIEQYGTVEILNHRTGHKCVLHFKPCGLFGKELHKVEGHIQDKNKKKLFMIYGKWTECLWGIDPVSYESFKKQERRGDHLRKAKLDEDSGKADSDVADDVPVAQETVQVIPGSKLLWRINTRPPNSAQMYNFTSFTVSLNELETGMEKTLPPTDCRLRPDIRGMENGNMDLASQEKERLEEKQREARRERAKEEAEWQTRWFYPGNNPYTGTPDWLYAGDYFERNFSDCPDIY
UniProt Q8WUM0: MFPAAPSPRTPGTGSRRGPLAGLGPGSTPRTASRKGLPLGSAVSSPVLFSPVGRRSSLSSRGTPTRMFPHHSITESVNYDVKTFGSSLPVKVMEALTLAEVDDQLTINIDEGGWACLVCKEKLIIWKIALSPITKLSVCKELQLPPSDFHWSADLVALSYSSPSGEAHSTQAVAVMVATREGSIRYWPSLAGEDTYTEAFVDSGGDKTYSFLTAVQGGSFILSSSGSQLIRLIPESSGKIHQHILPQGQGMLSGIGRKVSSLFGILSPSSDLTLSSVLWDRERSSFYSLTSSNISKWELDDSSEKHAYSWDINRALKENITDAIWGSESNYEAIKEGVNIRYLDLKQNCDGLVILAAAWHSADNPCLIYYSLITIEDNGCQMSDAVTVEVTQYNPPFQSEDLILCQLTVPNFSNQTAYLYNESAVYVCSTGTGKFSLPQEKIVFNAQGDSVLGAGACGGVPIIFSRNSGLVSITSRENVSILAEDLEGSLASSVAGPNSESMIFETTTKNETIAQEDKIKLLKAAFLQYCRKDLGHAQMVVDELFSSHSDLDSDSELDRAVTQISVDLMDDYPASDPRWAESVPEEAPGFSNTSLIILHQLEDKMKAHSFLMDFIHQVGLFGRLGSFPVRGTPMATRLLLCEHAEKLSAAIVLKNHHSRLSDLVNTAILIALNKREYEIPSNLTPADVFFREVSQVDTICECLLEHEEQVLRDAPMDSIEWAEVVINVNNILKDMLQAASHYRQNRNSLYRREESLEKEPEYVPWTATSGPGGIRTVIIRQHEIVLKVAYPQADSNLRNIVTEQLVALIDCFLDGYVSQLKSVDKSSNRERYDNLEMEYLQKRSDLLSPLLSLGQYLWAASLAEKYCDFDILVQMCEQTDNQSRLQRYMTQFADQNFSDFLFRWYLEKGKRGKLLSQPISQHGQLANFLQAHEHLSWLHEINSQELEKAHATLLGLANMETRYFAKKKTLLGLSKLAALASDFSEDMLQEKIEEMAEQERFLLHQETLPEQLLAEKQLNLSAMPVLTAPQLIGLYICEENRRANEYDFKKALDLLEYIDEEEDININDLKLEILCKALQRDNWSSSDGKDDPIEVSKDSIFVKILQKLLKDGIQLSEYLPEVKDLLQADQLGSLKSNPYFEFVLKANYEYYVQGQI
UniProt Q9BZD4: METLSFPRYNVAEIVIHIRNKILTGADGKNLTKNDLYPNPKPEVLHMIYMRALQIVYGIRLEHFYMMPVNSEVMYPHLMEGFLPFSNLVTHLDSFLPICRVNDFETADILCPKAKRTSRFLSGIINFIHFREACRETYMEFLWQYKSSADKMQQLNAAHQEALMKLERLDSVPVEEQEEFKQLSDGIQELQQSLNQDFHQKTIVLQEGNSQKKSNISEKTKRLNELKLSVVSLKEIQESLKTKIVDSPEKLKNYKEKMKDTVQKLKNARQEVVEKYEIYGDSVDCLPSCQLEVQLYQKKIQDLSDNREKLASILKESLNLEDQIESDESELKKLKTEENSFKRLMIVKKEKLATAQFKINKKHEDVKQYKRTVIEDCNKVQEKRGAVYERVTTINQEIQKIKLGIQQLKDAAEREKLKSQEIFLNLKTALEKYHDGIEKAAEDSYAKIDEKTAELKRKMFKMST
UniProt Q6ZVK8: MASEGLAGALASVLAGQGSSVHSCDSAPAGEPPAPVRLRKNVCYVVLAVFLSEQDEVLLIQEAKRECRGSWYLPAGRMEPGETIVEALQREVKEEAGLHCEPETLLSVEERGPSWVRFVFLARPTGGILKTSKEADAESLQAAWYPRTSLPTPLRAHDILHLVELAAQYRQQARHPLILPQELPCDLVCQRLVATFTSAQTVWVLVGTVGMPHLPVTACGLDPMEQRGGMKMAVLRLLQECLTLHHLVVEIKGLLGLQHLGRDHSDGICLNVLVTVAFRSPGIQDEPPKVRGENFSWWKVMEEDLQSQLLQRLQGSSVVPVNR
UniProt P53370: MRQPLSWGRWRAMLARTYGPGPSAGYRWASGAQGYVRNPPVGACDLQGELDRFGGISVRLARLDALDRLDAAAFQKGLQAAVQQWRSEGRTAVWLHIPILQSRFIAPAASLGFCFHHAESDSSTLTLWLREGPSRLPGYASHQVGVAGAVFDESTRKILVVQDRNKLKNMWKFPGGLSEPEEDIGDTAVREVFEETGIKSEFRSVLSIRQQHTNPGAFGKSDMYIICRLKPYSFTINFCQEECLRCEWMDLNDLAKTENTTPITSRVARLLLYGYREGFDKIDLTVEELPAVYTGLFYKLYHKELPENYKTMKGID
UniProt O60502: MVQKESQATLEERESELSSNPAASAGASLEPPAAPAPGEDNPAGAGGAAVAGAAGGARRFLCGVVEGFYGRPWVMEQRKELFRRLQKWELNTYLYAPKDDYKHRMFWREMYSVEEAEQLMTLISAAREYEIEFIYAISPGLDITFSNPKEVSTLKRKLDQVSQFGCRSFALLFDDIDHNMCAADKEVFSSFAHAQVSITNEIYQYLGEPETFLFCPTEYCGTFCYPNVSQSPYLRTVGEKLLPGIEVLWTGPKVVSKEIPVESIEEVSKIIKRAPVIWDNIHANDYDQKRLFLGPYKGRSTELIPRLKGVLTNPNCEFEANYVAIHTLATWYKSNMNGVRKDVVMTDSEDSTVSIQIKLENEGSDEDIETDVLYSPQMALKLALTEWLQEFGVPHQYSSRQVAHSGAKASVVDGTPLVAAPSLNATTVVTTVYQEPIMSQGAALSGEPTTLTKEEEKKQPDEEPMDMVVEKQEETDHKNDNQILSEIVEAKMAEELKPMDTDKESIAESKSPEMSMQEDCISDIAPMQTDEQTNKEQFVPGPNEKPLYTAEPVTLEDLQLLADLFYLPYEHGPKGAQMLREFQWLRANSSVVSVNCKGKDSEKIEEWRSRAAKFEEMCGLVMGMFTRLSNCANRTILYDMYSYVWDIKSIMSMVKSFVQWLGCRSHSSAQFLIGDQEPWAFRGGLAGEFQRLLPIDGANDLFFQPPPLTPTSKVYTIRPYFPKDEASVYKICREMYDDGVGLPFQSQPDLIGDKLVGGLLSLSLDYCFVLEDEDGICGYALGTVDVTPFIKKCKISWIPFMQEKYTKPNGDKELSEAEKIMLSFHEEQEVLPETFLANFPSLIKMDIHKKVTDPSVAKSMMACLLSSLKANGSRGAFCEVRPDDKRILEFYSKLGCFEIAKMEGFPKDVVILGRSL
UniProt Q96D31, whole entry, looked up: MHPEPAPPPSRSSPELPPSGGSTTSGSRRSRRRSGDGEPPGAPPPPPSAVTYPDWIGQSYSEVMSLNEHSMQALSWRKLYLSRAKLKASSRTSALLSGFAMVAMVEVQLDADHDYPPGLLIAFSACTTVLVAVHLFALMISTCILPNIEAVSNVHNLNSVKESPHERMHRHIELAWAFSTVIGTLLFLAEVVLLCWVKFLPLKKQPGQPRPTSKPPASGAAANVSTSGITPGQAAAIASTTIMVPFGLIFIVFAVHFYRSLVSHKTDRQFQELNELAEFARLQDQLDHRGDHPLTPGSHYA
UniProt Q9H6K4: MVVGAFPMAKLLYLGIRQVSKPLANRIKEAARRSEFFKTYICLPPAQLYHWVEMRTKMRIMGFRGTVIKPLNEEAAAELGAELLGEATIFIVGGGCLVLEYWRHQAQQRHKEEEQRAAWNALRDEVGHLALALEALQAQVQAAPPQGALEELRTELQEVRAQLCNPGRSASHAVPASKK

How the values were obtained:
Test in all cases: log2 fold change, soluble protein after heating vs DMSO (PISA); higher = thermal stabilisation; K562 cells, 10 uM, 30 min; active = over 0.2 and 3.5 SD of the protein, either way, in both replicates (recomputed)
[1] = compound: C1=CC=C(C=C1)[C@H](COC2=CC3=C(C=C2)NC(=O)N3)NC(=O)C4=CC=CN(C4=O)CC5=CC(=C(C=C5)F)F
Summary of the method: (§1)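 Soluble protein was defined as the supernatant after 21,000xg for 90 min. It came from K562 cells at 2×10^6 cells/mL given 10 μM compound for 30 min, heated in aliquots for 3 min across 48°C-58°C, pooled, and extracted in PBS with 0.5% NP-40 at 4°C, and was quantified by TMTpro 16plex LC-MS/MS with equalised channel sums. Thermal stability against control samples, from duplicates, is reported as log2 fold change.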

[2] = compound: CC1=C(SC2=C1C(=N[C@H](C3=NN=C(N32)C)CC(=O)N)C4=CC=C(C=C4)Cl)C
Summary of the method: as §1

[3] = compound: CC1=C2C(=CC=C1)N=C(N(C2=O)C3=CC=CC=C3C)CN4C=NC5=C(N=CN=C54)N
Summary of the method: as §1

[4] = compound: Cc1sc2c(c1C)C(c1ccc(Cl)cc1)=N[C@@H](CC(=O)OC(C)(C)C)c1nnc(C)n1-2
Summary of the method: as §1

[5] = compound: c1ccc([C@@H]2C[C@H]2NC2CCNCC2)cc1
Summary of the method: as §1

Measured: log2 fold change

NUS1 (UniProt Q96E22)
inactive: [1] 0.075 | [2] -0.06 | [3] 0.063 | [4] -0.084 | [5] 0.03

NUP42 (UniProt O15504)
inactive: [1] 0.16 | [2] -0.195 | [4] 0.285 | [5] 0.058

OPLAH (UniProt O14841)
inactive: [1] 0.004 | [2] 0.059 | [3] 0.077 | [4] -0.017 | [5] -0.011

OSBPL3 (UniProt Q9H4L5)
inactive: [2] -0.077 | [3] -0.035 | [4] 0.292 | [5] 0.14

P4HA1 isoform 2 (UniProt P13674)
inactive: [1] 0.065 | [2] -0.032 | [3] 0.006 | [4] -0.05 | [5] 0.009

OCIAD1 (UniProt Q9NX40)
inactive: [1] 0.012 | [2] 0.012 | [3] -0.007 | [4] -0.003 | [5] -0.024

OLA1 (UniProt Q9NTK5)
inactive: [1] -0.004 | [2] 0.054 | [3] 0.027 | [4] -0.012 | [5] 0.022

NUDT22 (UniProt Q9BRQ3)
inactive: [1] -0.093 | [3] 0.217

OSBPL2 (UniProt Q9H1P3)
inactive: [2] -0.583 | [5] -0.09

NUP133 (UniProt Q8WUM0)
inactive: [1] -0.034 | [2] -0.033 | [3] 0.047 | [4] -0.008 | [5] -0.081

P2RX4 isoform 2 (UniProt Q99571)
inactive: [1] 0.106 | [2] 0.072 | [3] -0.013 | [4] -0.079 | [5] -0.049

NUF2 (UniProt Q9BZD4)
inactive: [1] -0.21 | [2] 0.023 | [3] -0.02 | [5] 0.07

OTULIN (UniProt Q96BN8)
inactive: [1] -0.07 | [2] -0.019 | [3] 0.124 | [4] 0.005 | [5] 0.005

NUB1 (UniProt Q9Y5A7)
inactive: [1] -0.092 | [2] 0.055 | [3] 0.192 | [4] 0.095 | [5] 0.103

OSGEPL1 (UniProt Q9H4B0)
inactive: [2] 0.13 | [3] 0.128 | [5] -0.054

NT5C3A (UniProt Q9H0P0)
inactive: [1] -0.039 | [2] -0.019 | [3] -0.079 | [4] 0.017 | [5] -0.077

P3H1 (UniProt Q32P28)
inactive: [1] 0.065 | [2] -0.017 | [3] 0.028 | [4] -0.019 | [5] -0.031

ODF2L isoform 4 (UniProt Q9ULJ1)
inactive: [1] 0.063 | [3] 0.019

OPHN1 (UniProt O60890)
inactive: [1] -0.209 | [2] 0.033 | [4] 0.008 | [5] 0.07

NSMCE1 (UniProt Q8WV22)
inactive: [2] -0.051 | [3] -0.117 | [4] 0.062 | [5] 0.085

OXA1L (UniProt Q15070)
inactive: [1] 0.014 | [2] -0.01 | [3] 0.018 | [4] 0 | [5] 0.009

Pulled one by one from the entries so far (2):
ODF2L isoform 4 (UniProt Q9ULJ1)
inactive: [1] 0.063 | [3] 0.019

P3H1 (UniProt Q32P28)
inactive: [1] 0.065 | [2] -0.017 | [3] 0.028 | [4] -0.019 | [5] -0.031

(next part)

OXR1 isoform 2 (UniProt Q8N573)
inactive: [2] 0.126 | [3] 0.025 | [4] -0.035 | [5] -0.101

NXF1 (UniProt Q9UBU9)
inactive: [4] 0.165

NUDT18 (UniProt Q6ZVK8)
inactive: [2] 0.157 | [3] 0.038 | [4] -0.092 | [5] 0.103

NUDT6 (UniProt P53370)
inactive: [2] 0.073 | [3] 0.34 | [4] -0.023 | [5] -0.212

OGA (UniProt O60502)
inactive: [1] -0.032 | [2] 0.019 | [3] 0.047 | [4] -0.034 | [5] -0.065

ORAI1 (UniProt Q96D31)
inactive: [1] 0.002 | [3] -0.292 | [4] -0.042

P3H3 (UniProt Q8IVL6)
inactive: [4] 0.03

OPA3 isoform 2 (UniProt Q9H6K4)
inactive: [2] 0.011 | [3] 0.125 | [5] -0.035
